In paper PMC9200584:
These are yes or no findings as the source states them, for the method shown. Binding seen in cells or lysates may run through a third protein. Some entries that bind do so weakly or less than the wild type.

Sequences of proteins named here, by UniProt entry; tags and fusion partners are left off.
UniProt Q6Y1S1: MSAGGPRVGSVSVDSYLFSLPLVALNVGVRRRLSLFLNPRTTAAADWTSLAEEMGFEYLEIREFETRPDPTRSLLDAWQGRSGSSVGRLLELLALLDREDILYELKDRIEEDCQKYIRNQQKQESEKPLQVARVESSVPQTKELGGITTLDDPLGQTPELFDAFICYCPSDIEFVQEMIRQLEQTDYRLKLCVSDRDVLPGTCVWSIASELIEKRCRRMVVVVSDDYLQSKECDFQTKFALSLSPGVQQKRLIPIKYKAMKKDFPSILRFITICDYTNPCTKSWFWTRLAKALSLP

Biological target: T1, TLR4 (rat (endogenous in primary rat chondrocytes)) (UniProt Q9QX05)
T1 sequence: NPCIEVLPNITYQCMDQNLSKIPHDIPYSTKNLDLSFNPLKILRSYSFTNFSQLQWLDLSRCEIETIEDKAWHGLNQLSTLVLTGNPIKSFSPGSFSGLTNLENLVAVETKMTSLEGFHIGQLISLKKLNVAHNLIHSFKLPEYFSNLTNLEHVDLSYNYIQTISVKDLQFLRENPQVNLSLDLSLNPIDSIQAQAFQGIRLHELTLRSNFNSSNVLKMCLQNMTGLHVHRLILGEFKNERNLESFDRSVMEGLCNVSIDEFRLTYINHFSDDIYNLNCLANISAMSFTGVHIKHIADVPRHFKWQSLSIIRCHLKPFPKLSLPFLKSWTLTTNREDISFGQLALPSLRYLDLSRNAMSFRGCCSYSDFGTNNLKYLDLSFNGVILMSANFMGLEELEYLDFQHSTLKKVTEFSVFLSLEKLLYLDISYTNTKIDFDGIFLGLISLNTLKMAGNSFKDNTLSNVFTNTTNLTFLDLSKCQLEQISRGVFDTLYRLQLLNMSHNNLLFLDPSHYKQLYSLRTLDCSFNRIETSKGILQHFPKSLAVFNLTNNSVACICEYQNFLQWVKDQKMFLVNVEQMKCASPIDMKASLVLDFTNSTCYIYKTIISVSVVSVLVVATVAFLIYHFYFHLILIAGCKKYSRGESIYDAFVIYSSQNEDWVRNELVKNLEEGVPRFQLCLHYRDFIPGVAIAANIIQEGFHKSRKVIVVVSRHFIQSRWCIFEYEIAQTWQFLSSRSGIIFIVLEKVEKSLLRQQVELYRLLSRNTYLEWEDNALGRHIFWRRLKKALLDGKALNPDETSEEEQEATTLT
Test: co-IP; endogenous proteins of primary rat chondrocytes; cells pretreated or not with 200 ug/mL GBT for 1 h, then stimulated with 100 ng/mL LPS for 30 min; coimmunoprecipitation kit (Absin); TLR4-bound MyD88 detected

binding: binds
Substance: MyD88 (from UniProt Q6Y1S1 1-296)
